From PubChem BioAssay AID1347426 (Functional Genomics Laboratory (NCATS/FGL), 2020) come the findings set out here.

In all, about 31,000 sequences went through this assay and about 1,400 (4.5%) were called active.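 How the source made its calls: active means median seed-adjusted z-score above 1 or below -1; inactive means the rest.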 The list shows a part of the results.

The assay in a line: Novel Modifiers of Survival Motor Neuron (SMN) Protein: Gene Identification via Genome-wide siRNA Screen.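 Further: luminescence tracks full-length SMN protein made from the SMN2 reporter.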 The conditions noted are these: HEK293T SMN2-luciferase reporter, siRNA knockdown, 72 h; actives lie on both sides. The method in brief:
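Each of three siRNAs per gene is reverse-transfected (1 pmol) into reporter HEK293T cells whose luciferase output tracks SMN protein level. After 72 h culture, ONE-Glo luminescence is control-normalized, log10-transformed and MAD-standardized; Common Seed Analysis deprioritizes seed-driven hits.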
On the technique in general: Reporter assays use an easily measured gene product as a stand-in for the process of interest.
For the sequence GGUCUAUUCCUACGCUCUATT against NUDT5, the median seed-adjusted z-score is inactive: 0.228.

In the case of GUGUAAAUCAUUUCGAUCATT against CD180, the median seed-adjusted z-score is inactive: 0.

For the sequence GGGACGUACAGAUUCCUUUTT against ACOT4, the median seed-adjusted z-score was inactive: -0.158.

Regarding AGACAAUUUGUAACUAGAATT against NEUROD2, the median seed-adjusted z-score was inactive: -0.103.

Regarding GAGUAAAGAUUGUACAGCUTT against TNKS2, the median seed-adjusted z-score was inactive: 0.0545.

Regarding CCAUUCCAAGGACCAAUGATT against SLC2A10, the median seed-adjusted z-score was inactive: -0.0407.

Turning to ACGACUCCAUUGCCGAGGATT against POLR3H, the median seed-adjusted z-score is inactive: 0.

For the sequence GCUAUGAUGUAGUAAAGGATT against CYP2R1, the median seed-adjusted z-score is inactive: -0.981.

As for GUUCAAUAGUGAAACUCGATT against PTPN22, the median seed-adjusted z-score is inactive: -0.0843.

Take CCUCAAGGAUUGGGACUAUTT against SLC22A17: the median seed-adjusted z-score is inactive: -0.149.

Regarding GAGAGCAACUUAAAGACGATT against ST18, the median seed-adjusted z-score was inactive: 0.0762.

For the sequence ACUUAUUUGGAUUUCCUUUTT against MYOG, the median seed-adjusted z-score was inactive: -0.0972.

With CAUGUUCUCUAAUAGCACATT against KDR, the median seed-adjusted z-score was inactive: 0.0728.

Consider GGAAAAGUUCUGAAGACUATT against CPOX, for which the median seed-adjusted z-score was inactive: -0.135.

CUUCCCGUUUGAUUACCAATT against CHRNA3: the median seed-adjusted z-score was inactive: -0.359.

As for GAACUGUGAAUUAGAUGUATT against F9, the median seed-adjusted z-score is inactive: 0.332.

As to GAAGGAUGUUGGUCCUAGATT against SIK2, the median seed-adjusted z-score was inactive: 0.055.

Regarding GUUGCUCACUGAGACCAAATT against TDRKH, the median seed-adjusted z-score is inactive: -0.434.

Take CUUUCACAGUGGACAGUAATT against CNTF: the median seed-adjusted z-score was inactive: 0.3.

For the sequence CCAAGCUCCAUAUUAUUAATT against CLIC6, the median seed-adjusted z-score was inactive: -0.00828.

GUUAUUCCCUGUUCUCGAATT against ALDH5A1: the median seed-adjusted z-score was inactive: 0.339.

For the sequence UCUGCAUCGUGGUAUCCAATT against GLP1R, the median seed-adjusted z-score is inactive: 0.

Turning to AGAAGGUGACUCAAAGAAUTT against WFDC1, the median seed-adjusted z-score was inactive: 0.152.

For the sequence CAACCUCACUGCAAACAGUTT against TMCO6, the median seed-adjusted z-score was inactive: -0.227.

With AGAUAGACACUUUCUUUUUTT against LILRB5, the median seed-adjusted z-score is inactive: 0.834.

Consider CAACUAAGCGAGGAGCAAATT against RACGAP1, for which the median seed-adjusted z-score is inactive: 0.

Take GCCGAACACUUCUCCAUCATT against MEX3D: the median seed-adjusted z-score was inactive: -0.337.

Turning to AGAUAUUUUUACAAGCUAATT against TWIST2, the median seed-adjusted z-score is inactive: 0.363.

Turning to CUAUCGGUGUGGGAAAGAATT against RBM4B, the median seed-adjusted z-score was inactive: -0.251.

With GCACAAACCUUGGGUCGAATT against DBF4, the median seed-adjusted z-score was inactive: -0.319.

With GAUACGAUGUUCAACGGAATT against SHPRH, the median seed-adjusted z-score is inactive: 0.169.

As for UCAACUGUCUUUUACCCAATT against TKT, the median seed-adjusted z-score is inactive: 0.0314.

For the sequence CAACCGCAAUGGUGAUGAATT against SLC12A5, the median seed-adjusted z-score is inactive: -0.22.

As to GACCCACGCUUUUCUAAGATT against CKMT2, the median seed-adjusted z-score is inactive: -0.862.

For CAACGAAGUUGAUGAUCAUTT against ZNF432, the median seed-adjusted z-score was inactive: -0.124.

As for GAAGGACUAUAGUCUGUUATT against COIL, the median seed-adjusted z-score is inactive: 0.

With GGGCUUUGAUAGGAAUGCATT against UBE2K, the median seed-adjusted z-score is inactive: 0.497.

As for CCAAAGAUAUCGGACCCUATT against PI4K2A, the median seed-adjusted z-score is inactive: -0.486.

Take CUUUAACUAUGGAAAGACATT against ZNF253: the median seed-adjusted z-score is inactive: 0.0237.

Regarding GCUUGAAGUUAAUAGGUUUTT against CHKA, the median seed-adjusted z-score was inactive: -0.558.

As to GCCUUCUUCCGGAACAUCATT against KCNA6, the median seed-adjusted z-score was inactive: 0.

In the case of CAGCUGUGCUAAUAGGAUUTT against MFSD8, the median seed-adjusted z-score was inactive: -0.461.

On to GCCUAUCAGGAUCCCAGCATT against RIN1, for which the median seed-adjusted z-score was inactive: -0.0694.

For the sequence GCAGUUAACCGGGUACCAATT against TKT, the median seed-adjusted z-score was inactive: 0.0314.

Regarding UCAAGUUCGAGAUCCCUUATT against AP1M1, the median seed-adjusted z-score was inactive: 0.42.

In the case of GUCCUUUGCUUAUACAUCUTT against ZNF586, the median seed-adjusted z-score was inactive: -0.973.

GAUUGAGGCCUACAUGGAATT against ITPK1: the median seed-adjusted z-score was inactive: 0.0575.

With GAAAGAUCGAGAUAGACAATT against TWF1, the median seed-adjusted z-score was inactive: -0.171.

For the sequence GGACAUUGCAAGUAUCUCUTT against GABRP, the median seed-adjusted z-score was inactive: -0.441.

With GAAACUAUAUCCACAUCAATT against GIPR, the median seed-adjusted z-score was inactive: 0.475.

In the case of AGUACUCCCUGGACCUUCATT against CACNA1I, the median seed-adjusted z-score is inactive: 0.346.

CUCUCUUAUUUGUACCGGUTT against VEGFA: the median seed-adjusted z-score is inactive: 0.495.

Regarding GUAUCAUGACUACAGCGAUTT against DPT, the median seed-adjusted z-score is inactive: 0.073.

In the case of CCCUCGAGCAUGUUCCAAATT against PRPF6, the median seed-adjusted z-score is active: -1.06.

For GAAACCCUUUUGGACUUAATT against RAB27B, the median seed-adjusted z-score is inactive: 0.

As for GCCGAGUCAGUAUCUAUGATT against STARD13, the median seed-adjusted z-score is inactive: -0.0337.

Consider GGUGUUAUCUCUUAAGGCATT against HIVEP1, for which the median seed-adjusted z-score is inactive: 0.532.

As to AAAUGCAAUUCAAGCCUUUTT against GFRA1, the median seed-adjusted z-score is inactive: 0.125.

As to GCUUAUAUGAUAUCACCGATT against TPK1, the median seed-adjusted z-score is inactive: 0.521.

For CACUUCAACUACUCCGUGATT against GPN3, the median seed-adjusted z-score is inactive: -0.796.

Consider CCGUGGUGAUGGAACGCAUTT against PDXK, for which the median seed-adjusted z-score was inactive: -0.247.

Take GUCACGCUAUGAGACCUCATT against E2F1: the median seed-adjusted z-score is inactive: -0.211.

Turning to ACAUCACAGUAGAUACGGATT against XYLT2, the median seed-adjusted z-score is inactive: 0.148.

On to GAGGUGUGCUUUCUCACAATT against NLGN2, for which the median seed-adjusted z-score is inactive: 0.204.

GGCAAAUAGAUAUCGCAAATT against ZDHHC14: the median seed-adjusted z-score is inactive: 0.312.

For GGAGUCUCAUAGAUGACAATT against MMP27, the median seed-adjusted z-score is inactive: -0.084.

On to UCACUGUGCUACAUCAUCATT against MYL7, for which the median seed-adjusted z-score was active: -1.21.

As to GGGAAAAGCUUGACGAUUATT against RNF139, the median seed-adjusted z-score is inactive: 0.175.

As to CGGCAGACACUGAACAUCATT against SLC6A18, the median seed-adjusted z-score is inactive: 0.148.

Regarding CCGCCGAUGAGAUUGUGAATT against DAK, the median seed-adjusted z-score was inactive: -0.372.

Regarding GCAUCUACUUCCUAGCCGUTT against NPBWR2, the median seed-adjusted z-score was inactive: 0.438.

Take CCAGCGGUGUGGAAUGAGATT against LHPP: the median seed-adjusted z-score was inactive: 0.02.

Consider GUAUGGAACCAAUUAUAGATT against CPO, for which the median seed-adjusted z-score is inactive: 0.0875.

As for GCAAAGCCCUGUCAAACAATT against NPM2, the median seed-adjusted z-score was inactive: 0.215.

On to GCAGCAGUAUGUGCGCUCATT against DDX54, for which the median seed-adjusted z-score is inactive: 0.

As for CAACGGUUCUUACACCAAATT against EMR4, the median seed-adjusted z-score was inactive: -0.475.

For the sequence GGAUGUAAUUGAACGAUUUTT against ADAM17, the median seed-adjusted z-score was inactive: 0.

Turning to GCGACUUACUGAAGUGCAATT against FTSJ3, the median seed-adjusted z-score was inactive: 0.437.

Turning to CGUUCUCUUAAUAGACAUATT against ZNF124, the median seed-adjusted z-score is inactive: -0.487.

Consider GUUGCACUGCGUUUCAAAATT against 2-Mar, for which the median seed-adjusted z-score was inactive: 0.335.

As for CCAUCUAUCUGUGGGAGUUTT against ELF4, the median seed-adjusted z-score was inactive: -0.0311.

As for GCACGUAGAAAUGAUGAUATT against SMARCAD1, the median seed-adjusted z-score was inactive: -0.198.

For GAGAAAGAGUUCAAAUACATT against CLIC3, the median seed-adjusted z-score is inactive: 0.

Consider GCAACUACAGCACGAAUUATT against ZFHX4, for which the median seed-adjusted z-score was inactive: 0.0868.

With CAAGGGCACCUCUAAGGAUTT against GRB7, the median seed-adjusted z-score was inactive: 0.439.

Turning to GGACUACGAUGCUGGGAGATT against NCBP2, the median seed-adjusted z-score is inactive: -0.247.

AGCCUAUGCCUAUAAAGAATT against RPH3A: the median seed-adjusted z-score was inactive: 0.232.

Turning to GCGGUACAUUUGUAACUCUTT against IL15RA, the median seed-adjusted z-score was inactive: -0.0113.

Regarding AGUUCCGGGUGUUUAAUAATT against ITLN2, the median seed-adjusted z-score was inactive: 0.00733.

Consider GAGCAGACUUGAUCAAGCATT against HSDL1, for which the median seed-adjusted z-score is inactive: 0.0547.

Turning to CUCUACCAACAAUCACAAATT against NPTN, the median seed-adjusted z-score was inactive: 0.133.

For AGAACUCACUGACCUUCAATT against FOXI1, the median seed-adjusted z-score was inactive: -0.217.

GCAGGGCAUUAUUCUAGAATT against MIZF: the median seed-adjusted z-score is inactive: 0.365.

On to GGAUCAACCGCUGCUUGAATT against HELT, for which the median seed-adjusted z-score is inactive: -0.192.

As to GAAUCUACCUUAAUAUCGUTT against ARHGEF12, the median seed-adjusted z-score was inactive: 0.136.

For the sequence GCCCUGAACAAGUUGCUCATT against TRPV6, the median seed-adjusted z-score was inactive: -0.511.

With GGAAAACCUCAAUUGCUAUTT against ATP5A1, the median seed-adjusted z-score is inactive: -0.974.

In the case of CCACGAAAACGAAUGACUATT against TNFRSF17, the median seed-adjusted z-score is inactive: -0.0138.

With GGAGAUAAGAGAUCAUAUUTT against OXNAD1, the median seed-adjusted z-score is inactive: 0.36.

GGAGAAUAUUAACUAUUGATT against COL21A1: the median seed-adjusted z-score was inactive: 0.296.

In the case of AGCAAAUGCUGUCAGAGAATT against TGIF2LX, the median seed-adjusted z-score is inactive: -0.568.

For GUACUUCGAUGGACUCAAATT against RDH13, the median seed-adjusted z-score was inactive: 0.208.

Take GAUUCAGAAUGGGAGGCUUTT against TXNDC13: the median seed-adjusted z-score is inactive: 0.365.

As to GAUCAAUGAUAGUAUCCGATT against ERMP1, the median seed-adjusted z-score is inactive: 0.231.

As to GCGCAUCUAUCAACCCAAUTT against MLNR, the median seed-adjusted z-score was inactive: -0.038.

With CCAACCACCAGAUCUAUGATT against LBX1, the median seed-adjusted z-score was inactive: -0.36.

As for CUAUGCCCGUGGUCACUAUTT against TUBA4A, the median seed-adjusted z-score is inactive: -0.594.

Regarding GAACGUAGAUUAGCUUAUATT against TBK1, the median seed-adjusted z-score was inactive: 0.0578.
